From publication PMC10890932
These are yes or no findings as the source states them, for the method shown. For part of these data: Binding seen in cells or lysates may run through a third protein. Some entries that bind do so weakly or less than the wild type. For part of these data: Where a sequence is shown, tags or fusion partners need not be part of it. Values belong to the molecule of their own block, whether it stands above or below them.

Amino acid sequences for entries named in this document (tags omitted). A change or cut given only in a name is not applied to a line headed by its entry.
UniProt P09874: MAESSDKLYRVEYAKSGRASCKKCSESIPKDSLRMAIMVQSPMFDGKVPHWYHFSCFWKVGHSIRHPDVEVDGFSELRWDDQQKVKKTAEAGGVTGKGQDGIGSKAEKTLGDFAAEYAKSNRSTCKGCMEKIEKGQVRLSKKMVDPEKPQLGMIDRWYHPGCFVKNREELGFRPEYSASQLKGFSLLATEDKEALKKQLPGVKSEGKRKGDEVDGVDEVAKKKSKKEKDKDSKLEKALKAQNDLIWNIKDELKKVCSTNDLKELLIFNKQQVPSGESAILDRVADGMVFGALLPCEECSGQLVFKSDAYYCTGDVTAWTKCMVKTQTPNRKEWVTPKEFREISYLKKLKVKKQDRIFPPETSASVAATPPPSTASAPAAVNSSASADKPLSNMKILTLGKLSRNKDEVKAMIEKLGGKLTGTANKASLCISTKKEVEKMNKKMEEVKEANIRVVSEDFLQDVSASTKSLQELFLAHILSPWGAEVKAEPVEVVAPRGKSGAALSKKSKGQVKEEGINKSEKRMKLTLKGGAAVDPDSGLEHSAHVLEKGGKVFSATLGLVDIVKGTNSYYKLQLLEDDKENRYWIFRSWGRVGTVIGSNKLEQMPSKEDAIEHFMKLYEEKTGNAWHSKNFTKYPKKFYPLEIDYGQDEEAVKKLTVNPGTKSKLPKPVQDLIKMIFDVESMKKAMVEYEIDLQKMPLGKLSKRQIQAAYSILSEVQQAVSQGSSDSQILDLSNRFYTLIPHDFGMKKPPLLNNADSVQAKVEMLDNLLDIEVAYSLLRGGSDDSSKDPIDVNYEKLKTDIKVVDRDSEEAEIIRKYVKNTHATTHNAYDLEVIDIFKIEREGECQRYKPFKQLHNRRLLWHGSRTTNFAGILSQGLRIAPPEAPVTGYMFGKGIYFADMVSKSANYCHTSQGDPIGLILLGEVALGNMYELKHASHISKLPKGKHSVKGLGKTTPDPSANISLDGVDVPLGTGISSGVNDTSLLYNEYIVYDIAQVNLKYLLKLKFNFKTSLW

How the values were obtained:
[1] = biological target: T1, TKT full-length (plasmid co-transfected with PARP1 truncation mutants) (human) (UniProt P29401); test: co-IP; Hep3B cells transfected with TKT or PARP1 truncation mutants together with PARP1 or TKT full-length plasmid
T1 sequence: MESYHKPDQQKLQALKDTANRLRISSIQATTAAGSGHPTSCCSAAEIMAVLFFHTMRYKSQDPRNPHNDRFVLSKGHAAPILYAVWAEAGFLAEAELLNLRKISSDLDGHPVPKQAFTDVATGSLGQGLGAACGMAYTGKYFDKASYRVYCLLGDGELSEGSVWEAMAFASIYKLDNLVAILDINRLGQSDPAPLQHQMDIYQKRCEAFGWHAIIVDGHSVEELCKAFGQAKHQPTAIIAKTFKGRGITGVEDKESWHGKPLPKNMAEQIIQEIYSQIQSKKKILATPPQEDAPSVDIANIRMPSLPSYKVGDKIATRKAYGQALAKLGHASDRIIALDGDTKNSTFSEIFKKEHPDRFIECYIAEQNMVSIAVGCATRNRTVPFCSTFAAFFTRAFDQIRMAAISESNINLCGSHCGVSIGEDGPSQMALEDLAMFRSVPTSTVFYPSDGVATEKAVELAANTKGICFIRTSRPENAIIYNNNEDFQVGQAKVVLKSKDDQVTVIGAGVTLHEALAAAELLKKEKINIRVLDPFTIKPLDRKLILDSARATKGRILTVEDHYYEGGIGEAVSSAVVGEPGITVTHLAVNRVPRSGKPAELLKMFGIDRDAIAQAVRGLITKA

TKT-Flag (human) = biological target: T2, TKT-Flag (human) (UniProt P29401); test: co-IP; Hep3B cells transfected with TKT-Flag or PARP1-Flag alone, or co-transfected with TKT-Flag and PARP1-His; RIPA lysates before and 5, 30, 60 min after 8 Gy X-Ray; anti-Flag M2 magnetic beads, 2 h at 4 °C; western blotting
T2 sequence: T1 sequence

[2] = biological target: T3, TKT-Flag, recombinant, purified (human) (UniProt P29401); test: pull-down; purified recombinant TKT and PARP1 incubated together 2 h at 4 °C; captured with TKT antibody and protein A/G beads; washed with TBST; western blotting; both purified
T3 sequence: T1 sequence

PARP1-Flag = PARP1-Flag (UniProt P09874); test: co-IP; Hep3B cells transfected with TKT-Flag or PARP1-Flag alone, or co-transfected with TKT-Flag and PARP1-His; RIPA lysates before and 5, 30, 60 min after 8 Gy X-Ray; anti-Flag M2 magnetic beads, 2 h at 4 °C; western blotting

- binding [1]: binds
Molecule: BRCT domain of PARP1 (truncation mutant) (from UniProt P09874 385-476) (domain or fragment)

- binding (TKT-Flag (human)): binds
Molecule: PARP1-His (co-transfected in Hep3B) (from UniProt P09874 1-1014) (enzyme)

- binding [2]: binds
Molecule: PARP1-His, recombinant, purified (from UniProt P09874 1-1014) (enzyme)

- binding (TKT-Flag (human)): binds
Molecule: Poly (ADP-ribose) polymerase 1 (PARP1), endogenous in Hep3B (from UniProt P09874 1-1014) (enzyme)

- binding [1]: binds
Molecule: WGR domain of PARP1 (truncation mutant) (from UniProt P09874 542-638) (domain or fragment)

- binding (PARP1-Flag): binds
B1: Transketolase (TKT), endogenous in Hep3B (enzyme, UniProt P29401 1-623)
chain: T1 sequence
